The results in this text go back to PMC8866856.

The chains behind the UniProt entries cited, without tags or fusion partners. Where a name states a change or a piece, a line headed by the entry shows the natural chain unless it says otherwise. Residues count along the entry.
UniProt P38647, residues 47-679: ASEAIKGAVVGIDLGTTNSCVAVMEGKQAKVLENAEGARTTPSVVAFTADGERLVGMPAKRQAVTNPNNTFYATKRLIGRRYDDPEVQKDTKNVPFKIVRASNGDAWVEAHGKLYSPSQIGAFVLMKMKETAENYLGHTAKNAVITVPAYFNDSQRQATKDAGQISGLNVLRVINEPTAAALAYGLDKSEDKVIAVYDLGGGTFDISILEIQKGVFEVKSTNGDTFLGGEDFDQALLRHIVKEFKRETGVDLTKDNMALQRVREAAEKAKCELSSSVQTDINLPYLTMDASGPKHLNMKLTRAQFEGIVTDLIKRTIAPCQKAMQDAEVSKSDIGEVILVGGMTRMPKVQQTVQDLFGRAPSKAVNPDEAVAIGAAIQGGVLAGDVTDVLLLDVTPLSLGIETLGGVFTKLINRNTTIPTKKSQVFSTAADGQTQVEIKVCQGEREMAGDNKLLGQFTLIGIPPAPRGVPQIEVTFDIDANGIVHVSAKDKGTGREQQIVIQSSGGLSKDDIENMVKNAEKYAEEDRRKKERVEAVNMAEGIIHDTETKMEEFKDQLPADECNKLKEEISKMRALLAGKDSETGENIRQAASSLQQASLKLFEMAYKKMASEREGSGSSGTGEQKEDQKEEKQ
UniProt P70227: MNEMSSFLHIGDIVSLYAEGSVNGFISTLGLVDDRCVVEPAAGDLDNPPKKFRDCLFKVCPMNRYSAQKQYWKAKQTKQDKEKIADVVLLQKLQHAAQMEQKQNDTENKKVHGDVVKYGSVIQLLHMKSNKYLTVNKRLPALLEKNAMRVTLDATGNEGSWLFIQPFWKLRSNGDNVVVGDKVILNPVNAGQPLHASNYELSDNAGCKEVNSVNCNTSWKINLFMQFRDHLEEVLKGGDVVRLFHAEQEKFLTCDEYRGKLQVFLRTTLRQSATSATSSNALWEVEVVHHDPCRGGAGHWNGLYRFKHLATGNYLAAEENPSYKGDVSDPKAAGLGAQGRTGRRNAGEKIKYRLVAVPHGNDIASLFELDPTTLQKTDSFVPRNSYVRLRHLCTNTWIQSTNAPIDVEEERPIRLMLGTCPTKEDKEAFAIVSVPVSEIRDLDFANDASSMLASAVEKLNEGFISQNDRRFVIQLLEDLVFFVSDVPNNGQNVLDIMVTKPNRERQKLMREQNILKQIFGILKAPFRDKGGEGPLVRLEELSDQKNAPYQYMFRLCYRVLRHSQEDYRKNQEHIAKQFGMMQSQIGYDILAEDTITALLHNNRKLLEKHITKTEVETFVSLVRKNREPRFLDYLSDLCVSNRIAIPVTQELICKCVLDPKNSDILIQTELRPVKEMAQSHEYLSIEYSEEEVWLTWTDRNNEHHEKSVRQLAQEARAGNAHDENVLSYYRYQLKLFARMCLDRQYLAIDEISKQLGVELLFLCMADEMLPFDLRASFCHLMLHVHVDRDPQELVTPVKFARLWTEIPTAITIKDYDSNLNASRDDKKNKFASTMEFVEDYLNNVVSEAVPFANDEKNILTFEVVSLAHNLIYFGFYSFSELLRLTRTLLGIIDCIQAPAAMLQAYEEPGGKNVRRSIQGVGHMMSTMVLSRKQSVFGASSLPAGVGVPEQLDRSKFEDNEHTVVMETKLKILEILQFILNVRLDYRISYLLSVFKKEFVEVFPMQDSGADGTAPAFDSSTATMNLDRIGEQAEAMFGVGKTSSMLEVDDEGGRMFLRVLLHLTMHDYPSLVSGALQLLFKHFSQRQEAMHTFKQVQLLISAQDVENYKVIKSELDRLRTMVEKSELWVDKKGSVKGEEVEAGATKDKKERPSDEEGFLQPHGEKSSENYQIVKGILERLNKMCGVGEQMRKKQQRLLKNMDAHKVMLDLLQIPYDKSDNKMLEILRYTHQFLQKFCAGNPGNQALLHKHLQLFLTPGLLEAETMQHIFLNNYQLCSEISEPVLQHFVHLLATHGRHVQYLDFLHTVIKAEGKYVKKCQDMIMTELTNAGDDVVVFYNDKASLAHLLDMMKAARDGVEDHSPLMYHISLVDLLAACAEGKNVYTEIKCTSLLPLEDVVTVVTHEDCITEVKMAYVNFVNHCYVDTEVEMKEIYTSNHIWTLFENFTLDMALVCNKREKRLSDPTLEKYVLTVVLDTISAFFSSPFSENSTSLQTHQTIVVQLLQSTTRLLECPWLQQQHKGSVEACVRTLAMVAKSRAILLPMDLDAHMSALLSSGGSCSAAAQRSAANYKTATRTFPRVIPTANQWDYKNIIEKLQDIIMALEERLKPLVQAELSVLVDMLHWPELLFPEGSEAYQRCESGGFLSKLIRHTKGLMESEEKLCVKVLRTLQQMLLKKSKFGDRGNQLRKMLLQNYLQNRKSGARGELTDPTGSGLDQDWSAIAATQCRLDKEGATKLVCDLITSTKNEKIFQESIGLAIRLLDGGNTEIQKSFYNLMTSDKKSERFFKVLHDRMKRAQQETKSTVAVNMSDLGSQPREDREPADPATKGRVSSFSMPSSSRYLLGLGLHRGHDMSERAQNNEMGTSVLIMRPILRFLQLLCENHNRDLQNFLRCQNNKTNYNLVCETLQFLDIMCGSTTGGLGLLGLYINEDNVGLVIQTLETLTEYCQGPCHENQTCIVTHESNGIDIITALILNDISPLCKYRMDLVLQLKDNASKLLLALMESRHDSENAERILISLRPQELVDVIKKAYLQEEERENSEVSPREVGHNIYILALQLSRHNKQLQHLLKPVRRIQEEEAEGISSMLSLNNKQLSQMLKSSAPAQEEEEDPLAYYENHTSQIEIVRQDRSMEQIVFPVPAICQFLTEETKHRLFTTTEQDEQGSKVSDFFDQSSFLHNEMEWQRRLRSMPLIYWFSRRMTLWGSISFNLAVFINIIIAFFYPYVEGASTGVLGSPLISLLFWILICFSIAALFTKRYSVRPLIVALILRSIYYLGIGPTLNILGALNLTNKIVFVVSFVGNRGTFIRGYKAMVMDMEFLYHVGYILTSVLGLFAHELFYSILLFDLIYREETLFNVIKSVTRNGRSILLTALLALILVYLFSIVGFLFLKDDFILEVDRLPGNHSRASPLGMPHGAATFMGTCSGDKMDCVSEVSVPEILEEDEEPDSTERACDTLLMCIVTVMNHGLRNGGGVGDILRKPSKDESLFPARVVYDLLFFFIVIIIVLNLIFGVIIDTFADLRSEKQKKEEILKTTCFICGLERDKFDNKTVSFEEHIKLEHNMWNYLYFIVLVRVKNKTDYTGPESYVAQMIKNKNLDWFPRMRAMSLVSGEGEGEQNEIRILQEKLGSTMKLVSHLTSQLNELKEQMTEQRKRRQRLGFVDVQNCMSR
UniProt Q60932: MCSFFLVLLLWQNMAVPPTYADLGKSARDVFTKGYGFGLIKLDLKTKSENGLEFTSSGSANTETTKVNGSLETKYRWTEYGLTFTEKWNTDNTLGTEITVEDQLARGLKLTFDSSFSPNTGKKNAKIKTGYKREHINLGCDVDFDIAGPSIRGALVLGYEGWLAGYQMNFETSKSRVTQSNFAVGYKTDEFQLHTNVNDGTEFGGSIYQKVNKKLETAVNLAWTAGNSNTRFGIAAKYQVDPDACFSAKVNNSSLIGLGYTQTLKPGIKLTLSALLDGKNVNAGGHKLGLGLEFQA
UniProt Q6PF93: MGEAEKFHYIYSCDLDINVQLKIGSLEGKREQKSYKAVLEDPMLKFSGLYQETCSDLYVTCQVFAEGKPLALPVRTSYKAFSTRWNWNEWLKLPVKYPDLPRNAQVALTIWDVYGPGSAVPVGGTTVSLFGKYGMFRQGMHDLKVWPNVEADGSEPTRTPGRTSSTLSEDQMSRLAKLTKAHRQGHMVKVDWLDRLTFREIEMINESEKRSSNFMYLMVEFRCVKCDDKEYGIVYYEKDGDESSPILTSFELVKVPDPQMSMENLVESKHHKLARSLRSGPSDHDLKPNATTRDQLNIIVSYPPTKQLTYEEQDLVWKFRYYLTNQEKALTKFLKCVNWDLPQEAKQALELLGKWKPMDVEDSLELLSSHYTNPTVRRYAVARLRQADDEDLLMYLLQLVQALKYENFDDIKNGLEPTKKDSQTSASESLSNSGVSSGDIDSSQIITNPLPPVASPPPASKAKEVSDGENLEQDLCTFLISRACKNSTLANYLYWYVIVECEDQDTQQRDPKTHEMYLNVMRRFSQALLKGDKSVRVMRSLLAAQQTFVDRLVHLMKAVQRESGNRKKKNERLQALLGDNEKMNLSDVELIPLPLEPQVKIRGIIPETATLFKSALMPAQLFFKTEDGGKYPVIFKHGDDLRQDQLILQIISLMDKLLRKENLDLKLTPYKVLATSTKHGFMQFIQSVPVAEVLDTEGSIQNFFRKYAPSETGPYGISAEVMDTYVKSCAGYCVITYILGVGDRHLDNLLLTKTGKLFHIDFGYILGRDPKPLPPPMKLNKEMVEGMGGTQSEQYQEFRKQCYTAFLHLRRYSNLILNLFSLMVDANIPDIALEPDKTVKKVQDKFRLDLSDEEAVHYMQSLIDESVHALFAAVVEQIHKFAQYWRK

No constants are given. Whether binding was seen depends on the method and setting. Binding seen in cells or lysates may run through a third protein. A result given as binding can be weak or reduced; the word gives no strength.

Assay [1] has as its target Notch1 (mouse (endogenous in Tregs from murine spleens)) (UniProt Q01705). The assay can be described thus: co-IP; endogenous proteins; activated wild-type murine Tregs cultured 6 h without IL-2, lysed in RIPA buffer with 1% NP-40; supernatant incubated with antibody to Notch1 or Grp75 (6 ug) or control IgG for 16-18 h at 4°C, then Sepharose G/A plus beads for 3 h; washed with ice-cold PBS; western blot. On the technique in general: In western blotting, separated proteins are transferred to a membrane and probed.

Assay [2] has as its target glucose-regulated protein 75 (Grp75) (mouse (endogenous in Tregs from murine spleens)) (UniProt P38647). The assay is described as above.

As to “Inositol 1,4,5-trisphosphate receptor, type 3 (IP3R3) (from UniProt P70227 1-2670)”, in assay [1], the binding result is “no binding”. Take “Voltage Dependent Anion Channel (VDAC)1 (from UniProt Q60932)”: the binding result in assay [1] and in assay [2] was “binds” in each case.

In the case of Notch1 (from UniProt Q01705), the binding entry in assay [2] is “binds”. As for Vps34 (from UniProt Q6PF93 1-887), the binding result in assay [1] is on record as “no binding”. Still for that read-out and setting: the result for “glucose-regulated protein 75 (Grp75) (from UniProt P38647 47-679)” reads “binds”.
